From article PMC9876571
No constants are given. Whether binding was seen depends on the method and setting. Binding seen in cells or lysates may run through a third protein. Some binding calls cover weakened binding; strength is not graded here.

The chains behind the UniProt entries cited, without tags or fusion partners.
UniProt P42128: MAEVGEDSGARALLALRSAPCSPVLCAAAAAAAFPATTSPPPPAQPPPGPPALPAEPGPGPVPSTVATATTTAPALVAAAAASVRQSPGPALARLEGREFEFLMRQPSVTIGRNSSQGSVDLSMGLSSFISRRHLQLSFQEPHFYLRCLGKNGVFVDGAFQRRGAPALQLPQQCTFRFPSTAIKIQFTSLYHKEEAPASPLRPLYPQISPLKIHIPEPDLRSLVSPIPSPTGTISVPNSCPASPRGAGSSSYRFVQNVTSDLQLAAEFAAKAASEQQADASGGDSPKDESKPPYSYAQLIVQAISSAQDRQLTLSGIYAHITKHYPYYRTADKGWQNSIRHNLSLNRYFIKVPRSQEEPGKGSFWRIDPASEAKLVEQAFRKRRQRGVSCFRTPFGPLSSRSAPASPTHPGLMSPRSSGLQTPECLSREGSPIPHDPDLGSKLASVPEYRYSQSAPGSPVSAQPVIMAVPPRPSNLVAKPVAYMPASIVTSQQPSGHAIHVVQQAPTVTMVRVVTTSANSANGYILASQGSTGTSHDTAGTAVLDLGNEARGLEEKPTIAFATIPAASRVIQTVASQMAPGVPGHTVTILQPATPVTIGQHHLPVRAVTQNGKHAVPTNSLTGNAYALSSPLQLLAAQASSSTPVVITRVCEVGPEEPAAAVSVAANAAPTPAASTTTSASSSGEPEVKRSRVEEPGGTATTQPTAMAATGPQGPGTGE

Biological target: Foxk1 (mouse (endogenous in C2C12)) (UniProt P42128)
Experiment: co-IP; C2C12 myotubes (differentiated 8 days, 1 uM insulin for 6 hr before harvest), lysed in IP buffer (50 mM Tris-HCl pH 8.0, 5 mM EDTA, 150 mM NaCl, 0.5% NP-40, 0.5% Triton X-100), incubated with specific antibodies, Dynabeads protein A/G, western blot

- binding: binds
B1: Sin3A (protein, UniProt Q60520 1-1274)
chain: MKRRLDDQESPVYAAQQRRIPGSTEAFSHQHRVLAPAPPVYEAVSETMQSATGIQYSVAPNYQVSAVPQSSGSHGPAIAAVHSSHHHPTAVQPHGGQVVQSHAHPAPPVAPVQGQQQFQRLKVEDALSYLDQVKLQFGSQPQVYNDFLDIMKEFKSQSIDTPGVISRVSQLFKGHPDLIMGFNTFLPPGYKIEVQTNDMVNVTTPGQVHQIPTHGIQPQPQPPPQHPSQPSSQSAPTPAQPAPQPTAAKVSKPSQLQAHTPASQQTPPLPPYASPRSPPVQPHTPVTISLGTAPSLQNNQPVEFNHAINYVNKIKNRFQGQPDIYKAFLEILHTYQKEQRNAKEAGGNYTPALTEQEVYAQVARLFKNQEDLLSEFGQFLPDANSSVLLSKTTAEKVDSVRNDHGGTVKKPQLNNKPQRPSQNGCQIRRHSGTGATPPVKKKPKLMSLKESSMADASKHGVGTESLFFDKVRKALRSAEAYENFLRCLVIFNQEVISRAELVQLVSPFLGKFPELFNWFKNFLGYKESVHLESFPKERATEGIAMEIDYASCKRLGSSYRALPKSYQQPKCTGRTPLCKEVLNDTWVSFPSWSEDSTFVSSKKTQYEEHIYRCEDERFELDVVLETNLATIRVLEAIQKKLSRLSAEEQAKFRLDNTLGGTSEVIHRKALQRIYADKAADIIDGLRKNPSIAVPIVLKRLKMKEEEWREAQRGFNKVWREQNEKYYLKSLDHQGINFKQNDTKVLRSKSLLNEIESIYDERQEQATEENAGVPVGPHLSLAYEDKQILEDAAALIIHHVKRQTGIQKEDKYKIKQIMHHFIPDLLFAQRGDLSDVEEEEEEEMDVDEATGAPKKHNGVGGSPPKSKLLFSNTAAQKLRGMDEVYNLFYVNNNWYIFMRLHQILCLRLLRICSQAERQIEEENREREWEREVLGIKRDKSDSPAIQLRLKEPMDVDVEDYYPAFLDMVRSLLDGNIDSSQYEDSLREMFTIHAYIAFTMDKLIQSIVRQLQHIVSDEVCVQVTDLYLAENNNGATGGQLNSQTSRSLLESAYQRKAEQLMSDENCFKLMFIQSQGQVQLTVELLDTEEENSDDPVEAERWSDYVERYMSSDTTSPELREHLAQKPVFLPRNLRRIRKCQRGREQQEKEGKEGNSKKTMENVESLDKLECRFKLNSYKMVYVIKSEDYMYRRTALLRAHQSHERVSKRLHQRFQAWVDKWTKEHVPREMAAETSKWLMGEGLEGLVPCTTTCDTETLHFVSINKYRVKYGTVFKAP
